Results as given in article PMC12499447.
These are yes or no findings as the source states them, for the method shown. In cells and extracts the contact can be indirect. Some binding calls cover weakened binding; strength is not graded here. For part of these data: Tags and fused reporters may be left off the sequences shown. Each block holds one binder with its values, some of them ahead of it.

Tests used:
[1] = target: T1, Apoptosis inhibitor 5 (API5), endogenous (human (endogenous in A549 and HEK293T)) (UniProt Q9BZZ5); assay: co-IP
T1 sequence: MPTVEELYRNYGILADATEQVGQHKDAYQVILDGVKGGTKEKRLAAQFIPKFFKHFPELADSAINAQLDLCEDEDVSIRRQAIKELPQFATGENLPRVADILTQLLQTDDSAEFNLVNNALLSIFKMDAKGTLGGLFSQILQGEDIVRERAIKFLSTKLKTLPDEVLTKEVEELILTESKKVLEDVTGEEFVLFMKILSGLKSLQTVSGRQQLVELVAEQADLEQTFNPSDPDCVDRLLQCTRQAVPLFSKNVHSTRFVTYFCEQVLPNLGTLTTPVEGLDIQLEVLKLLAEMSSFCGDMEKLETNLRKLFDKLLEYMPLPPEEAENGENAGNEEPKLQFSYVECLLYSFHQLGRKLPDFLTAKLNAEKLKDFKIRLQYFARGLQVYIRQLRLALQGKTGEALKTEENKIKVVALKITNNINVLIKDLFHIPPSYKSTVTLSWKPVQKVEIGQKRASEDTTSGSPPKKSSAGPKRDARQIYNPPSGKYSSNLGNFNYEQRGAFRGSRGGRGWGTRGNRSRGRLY

[2] = target: T2, API5^WT, exogenous (tag not told for these experiments) (human) (UniProt Q9BZZ5); assay: co-IP; candidate kinases predicted by GPS 6.0 screened against API5 (Figures S7 and S8B); constructs and cells not shown
T2 sequence: T1 sequence

[3] = target: T3, Melanoma differentiation-associated protein-5 (MDA5), endogenous (human (endogenous in A549)) (UniProt Q9BYX4); assay: co-IP; A549 cells infected with SeV (25 HA units) for 12 h or not; rabbit RIG-I or MDA5 antibody or rabbit IgG; endogenous proteins, immunoblot
T3 sequence: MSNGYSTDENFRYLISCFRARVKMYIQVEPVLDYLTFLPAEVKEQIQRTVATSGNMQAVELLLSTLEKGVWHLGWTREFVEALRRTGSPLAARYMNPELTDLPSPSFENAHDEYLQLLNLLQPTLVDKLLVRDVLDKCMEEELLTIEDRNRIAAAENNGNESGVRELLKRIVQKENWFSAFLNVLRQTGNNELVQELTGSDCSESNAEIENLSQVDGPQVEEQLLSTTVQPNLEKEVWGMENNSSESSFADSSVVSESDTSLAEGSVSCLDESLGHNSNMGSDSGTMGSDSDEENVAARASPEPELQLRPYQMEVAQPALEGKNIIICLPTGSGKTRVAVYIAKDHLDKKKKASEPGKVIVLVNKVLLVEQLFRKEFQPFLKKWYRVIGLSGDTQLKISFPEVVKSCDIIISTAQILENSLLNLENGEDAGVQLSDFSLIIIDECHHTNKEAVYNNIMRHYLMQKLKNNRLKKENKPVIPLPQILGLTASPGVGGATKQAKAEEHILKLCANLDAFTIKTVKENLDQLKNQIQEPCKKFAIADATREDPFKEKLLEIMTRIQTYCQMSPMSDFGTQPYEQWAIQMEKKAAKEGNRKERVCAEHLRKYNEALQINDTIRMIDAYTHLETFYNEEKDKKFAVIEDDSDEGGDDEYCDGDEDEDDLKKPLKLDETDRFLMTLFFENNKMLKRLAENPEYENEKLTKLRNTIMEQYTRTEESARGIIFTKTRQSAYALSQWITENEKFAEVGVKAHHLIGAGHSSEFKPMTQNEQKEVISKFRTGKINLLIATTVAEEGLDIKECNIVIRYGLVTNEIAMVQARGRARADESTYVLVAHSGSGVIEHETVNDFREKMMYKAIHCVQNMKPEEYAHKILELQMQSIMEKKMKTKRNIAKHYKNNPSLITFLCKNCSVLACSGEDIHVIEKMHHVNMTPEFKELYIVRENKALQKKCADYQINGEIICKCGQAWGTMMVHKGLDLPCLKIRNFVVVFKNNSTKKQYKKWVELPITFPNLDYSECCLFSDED

[4] = target: T4, Retinoic acid-inducible gene-I (RIG-I), endogenous (human (endogenous in A549)) (UniProt O95786); assay: as above
T4 sequence: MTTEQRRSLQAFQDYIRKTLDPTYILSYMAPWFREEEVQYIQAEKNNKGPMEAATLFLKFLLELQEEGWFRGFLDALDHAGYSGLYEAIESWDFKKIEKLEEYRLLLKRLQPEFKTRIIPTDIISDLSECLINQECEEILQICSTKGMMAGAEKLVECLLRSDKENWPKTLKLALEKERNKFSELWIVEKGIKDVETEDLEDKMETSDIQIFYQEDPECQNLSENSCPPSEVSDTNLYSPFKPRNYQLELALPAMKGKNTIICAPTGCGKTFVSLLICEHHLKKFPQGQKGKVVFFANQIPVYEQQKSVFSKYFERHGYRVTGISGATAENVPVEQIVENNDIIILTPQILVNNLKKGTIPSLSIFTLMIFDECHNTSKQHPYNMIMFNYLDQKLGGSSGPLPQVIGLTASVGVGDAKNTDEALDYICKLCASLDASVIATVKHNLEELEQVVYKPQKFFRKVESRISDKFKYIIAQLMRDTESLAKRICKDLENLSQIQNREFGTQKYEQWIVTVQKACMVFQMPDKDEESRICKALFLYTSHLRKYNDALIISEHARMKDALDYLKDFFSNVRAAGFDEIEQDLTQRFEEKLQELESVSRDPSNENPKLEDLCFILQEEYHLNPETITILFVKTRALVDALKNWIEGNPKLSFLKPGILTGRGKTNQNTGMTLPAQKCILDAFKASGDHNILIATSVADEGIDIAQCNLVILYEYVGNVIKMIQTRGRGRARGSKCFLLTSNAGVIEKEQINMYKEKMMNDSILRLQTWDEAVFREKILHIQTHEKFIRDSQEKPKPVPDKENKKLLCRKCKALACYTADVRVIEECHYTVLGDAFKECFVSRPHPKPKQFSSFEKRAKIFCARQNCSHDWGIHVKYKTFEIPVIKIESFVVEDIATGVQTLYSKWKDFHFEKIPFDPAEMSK

[5] = target: p62/SQSTM1, endogenous (human (endogenous in A549)) (UniProt Q13501); assay: co-IP
[6] = target: p62, exogenous (tag not told for these experiments) (human (amplified from HEK293T cells)) (UniProt Q13501); assay: co-IP
[7] = target: T5, MDA5 (construct of Figures S4 and S21 not shown) (UniProt Q9BYX4); assay: co-IP
T5 sequence: T3 sequence

[8] = target: T6, RIG-I (construct of Figures S4 and S21 not shown) (UniProt O95786); assay: co-IP
T6 sequence: T4 sequence

binding [1]: binds
B1: Melanoma differentiation-associated protein-5 (MDA5), endogenous (protein, UniProt Q9BYX4 1-1025)
chain: T3 sequence

binding [2]: binds
B2: PRKCI (candidate kinase in the co-IP screen) (enzyme, UniProt P41743 1-596)
chain: MPTQRDSSTMSHTVAGGGSGDHSHQVRVKAYYRGDIMITHFEPSISFEGLCNEVRDMCSFDNEQLFTMKWIDEEGDPCTVSSQLELEEAFRLYELNKDSELLIHVFPCVPERPGMPCPGEDKSIYRRGARRWRKLYCANGHTFQAKRFNRRAHCAICTDRIWGLGRQGYKCINCKLLVHKKCHKLVTIECGRHSLPQEPVMPMDQSSMHSDHAQTVIPYNPSSHESLDQVGEEKEAMNTRESGKASSSLGLQDFDLLRVIGRGSYAKVLLVRLKKTDRIYAMKVVKKELVNDDEDIDWVQTEKHVFEQASNHPFLVGLHSCFQTESRLFFVIEYVNGGDLMFHMQRQRKLPEEHARFYSAEISLALNYLHERGIIYRDLKLDNVLLDSEGHIKLTDYGMCKEGLRPGDTTSTFCGTPNYIAPEILRGEDYGFSVDWWALGVLMFEMMAGRSPFDIVGSSDNPDQNTEDYLFQVILEKQIRIPRSLSVKAASVLKSFLNKDPKERLGCHPQTGFADIQGHPFFRNVDWDMMEQKQVVPPFKPNISGEFGLDNFDSQFTNEPVQLTPDDDDIVRKIDQSEFEGFEYINPLLMSAEECV

binding [3]: binds
binding [4]: binds
binding [5]: binds
B3: Phosphorylated API5 protein (pAPI5, phospho-S464), endogenous (protein, UniProt Q9BZZ5 1-524)
chain: T1 sequence
modifications: phosphoserine at 464

binding [6]: binds
binding [7]: binds
binding [8]: binds
B4: API5^WT, exogenous (tag not told for these experiments) (protein, UniProt Q9BZZ5 1-524)
chain: T1 sequence

binding [1]: binds
B5: Retinoic acid-inducible gene-I (RIG-I), endogenous (protein, UniProt O95786 1-925)
chain: T4 sequence
